The source of these data is patent publication US8092810B2, “Use of polypeptides having antimicrobial activity” (Novozymes A/S, priority 2006, dated 2012).

Data set [1] is described as follows: Odor evaluation of soiled laundry, wash in buffer. The settings on record: panelists finding lowest odor with Lento.
A short description of data set [2]: Odor evaluation of soiled laundry, wash in liquid detergent. The note with it: panelists finding lowest odor with Lento.

B1: Lento: Bacillus licheniformis polypeptide having amino acids 1-85 of SEQ ID NO: 2, purified from ATCC 14580 fermentation broth (protein)
chain: MKNHLYEKKKRKPLTRTIKATLAVLTMSIALVGGATVPSFAWVNPGYHYQYPSEGGTWRYGFVNAGLRSEYNHPTKVHGSTVQKL
modifications: Bacillus licheniformis ATCC 14580
For the molecule B1, the “Preference (with Lento:without), share with Lento” value (from here on “Preference (with Lento:without)”) was 36%:64% in data set [1] (Shirt 1); 43%:57% in data set [1] (Shirt 2); 86%:14% in data set [1] (Sock); 100%:0% in data set [1] (T-shirt 1); 71%:29% in data set [1] (T-shirt 2); 64%:36% in data set [1] (Tea towel 1). In addition, the “Preference (with Lento:without)” value is recorded as 64%:36% in data set [1] (Tea towel 2); 66%:34% in data set [1] (Total); 50%:50% in data set [2] (Shirt 1); 29%:71% in data set [2] (Shirt 2); 71%:29% in data set [2] (Sock); 71%:29% in data set [2] (T-shirt 1). Also, the “Preference (with Lento:without)” value in data set [2] (T-shirt 2) is 57%:43%; in data set [2] (Tea towel 1), 29%:71%; in data set [2] (Tea towel 2), 57%:43%; in data set [2] (Total), 52%:48%.
